Reference: PMC10279700, “Structural insights into regulation of the PEAK3 pseudokinase scaffold by 14-3-3” (Nature Communications, 2023)
Results are given in words; binding and its absence hold for the method and conditions named. In cells and extracts the contact can be indirect. Here binding means that the protein was enriched with, or labelled near, the bait; the list need not be complete. For part of these data: No binding means not detected with the bait. For part of these data: Sequences can lack the tags named with a protein.

The chains behind the UniProt entries cited, without tags or fusion partners.
UniProt P63151: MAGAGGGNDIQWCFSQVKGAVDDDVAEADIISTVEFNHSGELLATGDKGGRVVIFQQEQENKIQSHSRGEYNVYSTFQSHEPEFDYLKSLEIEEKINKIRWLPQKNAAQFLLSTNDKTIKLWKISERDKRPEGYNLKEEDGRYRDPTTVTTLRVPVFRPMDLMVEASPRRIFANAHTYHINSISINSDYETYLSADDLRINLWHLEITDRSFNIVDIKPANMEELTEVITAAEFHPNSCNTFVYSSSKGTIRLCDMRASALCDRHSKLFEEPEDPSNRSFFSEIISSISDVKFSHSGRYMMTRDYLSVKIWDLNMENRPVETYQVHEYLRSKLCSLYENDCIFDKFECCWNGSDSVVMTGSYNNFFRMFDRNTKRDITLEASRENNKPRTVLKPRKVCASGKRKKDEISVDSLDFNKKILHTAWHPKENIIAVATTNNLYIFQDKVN
UniProt P30153: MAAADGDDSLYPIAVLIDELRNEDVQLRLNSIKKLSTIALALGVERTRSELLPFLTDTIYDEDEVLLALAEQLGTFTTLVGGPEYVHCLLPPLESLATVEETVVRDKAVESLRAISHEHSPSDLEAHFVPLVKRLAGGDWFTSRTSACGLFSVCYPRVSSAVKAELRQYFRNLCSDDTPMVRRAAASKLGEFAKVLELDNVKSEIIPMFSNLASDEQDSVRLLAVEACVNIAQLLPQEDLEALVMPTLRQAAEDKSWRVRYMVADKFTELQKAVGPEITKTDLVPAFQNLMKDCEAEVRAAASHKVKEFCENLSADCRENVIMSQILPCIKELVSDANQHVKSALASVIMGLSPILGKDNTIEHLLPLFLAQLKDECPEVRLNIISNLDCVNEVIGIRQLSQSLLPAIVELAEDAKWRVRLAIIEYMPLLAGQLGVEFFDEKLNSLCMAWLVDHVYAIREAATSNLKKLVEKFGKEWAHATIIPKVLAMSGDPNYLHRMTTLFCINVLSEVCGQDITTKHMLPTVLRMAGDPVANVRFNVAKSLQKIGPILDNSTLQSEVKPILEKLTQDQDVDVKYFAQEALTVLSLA
UniProt P63104: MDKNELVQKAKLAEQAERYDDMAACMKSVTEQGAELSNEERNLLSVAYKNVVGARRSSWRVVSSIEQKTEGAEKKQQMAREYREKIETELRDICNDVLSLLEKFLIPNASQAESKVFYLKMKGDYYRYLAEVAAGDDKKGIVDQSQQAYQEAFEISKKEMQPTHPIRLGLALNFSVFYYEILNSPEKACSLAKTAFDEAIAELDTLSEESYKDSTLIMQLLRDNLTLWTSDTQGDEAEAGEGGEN
UniProt P46109: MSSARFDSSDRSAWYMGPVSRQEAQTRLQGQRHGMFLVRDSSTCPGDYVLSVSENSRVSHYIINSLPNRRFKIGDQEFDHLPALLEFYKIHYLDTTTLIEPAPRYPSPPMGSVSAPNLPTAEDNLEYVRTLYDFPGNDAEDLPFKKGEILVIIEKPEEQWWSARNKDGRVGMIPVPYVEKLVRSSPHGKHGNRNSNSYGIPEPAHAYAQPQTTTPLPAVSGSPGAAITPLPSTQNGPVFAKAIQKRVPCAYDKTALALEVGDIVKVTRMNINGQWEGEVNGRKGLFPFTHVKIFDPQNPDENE

T1: FLAG-tagged PEAK3 S69A (human) (UniProt Q6ZS72)
T1 sequence: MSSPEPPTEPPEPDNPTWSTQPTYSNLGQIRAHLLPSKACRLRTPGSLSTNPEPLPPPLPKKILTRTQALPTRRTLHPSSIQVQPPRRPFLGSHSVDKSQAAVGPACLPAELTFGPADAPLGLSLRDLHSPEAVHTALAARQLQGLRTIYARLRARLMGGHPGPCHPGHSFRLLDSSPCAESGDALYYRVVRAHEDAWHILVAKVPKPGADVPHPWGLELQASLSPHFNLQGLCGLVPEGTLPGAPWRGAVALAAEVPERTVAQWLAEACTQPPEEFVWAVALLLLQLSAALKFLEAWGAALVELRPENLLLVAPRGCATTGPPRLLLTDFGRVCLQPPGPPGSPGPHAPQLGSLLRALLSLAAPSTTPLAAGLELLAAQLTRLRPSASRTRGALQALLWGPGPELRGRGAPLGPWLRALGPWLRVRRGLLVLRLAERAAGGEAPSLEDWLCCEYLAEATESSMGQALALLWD


Tests used:
[1] = biological target: T1, FLAG-tagged PEAK3 S69A (human); test: affinity purification with mass spectrometry; WT or S69A PEAK3-3xFLAG transiently expressed in HEK293; anti-FLAG M2 magnetic beads, 3 h at 4 °C, 3xFLAG peptide elution; SAINTexpress BFDR < 0.05 against non-transfected cells
[2] = biological target: FLAG-tagged WT PEAK3 (human) (UniProt Q6ZS72); test: as above
[3] = biological target: FLAG-tagged full-length human PEAK3 (PEAK3-1xFLAG) (human) (UniProt Q6ZS72); test: affinity purification with mass spectrometry; PEAK3-1xFLAG purified from Expi293F on Flag resin and Superdex 200; 5 ug of the purified complex digested with trypsin and analysed by MS

Molecule	binding [1]	binding [2]	binding [3]
PPP2R2A (from UniProt P63151 1-447)	binds	no binding	
PPP2R1A (from UniProt P30153 1-589)	binds	no binding	
14-3-3ζ (from UniProt P63104 1-245)			binds
CrkL (from UniProt P46109 1-303)	binds		
14-3-3η (protein, UniProt Q04917 1-246) MGDREQLLQRARLAEQAERYDDMASAMKAVTELNEPLSNEDRNLLSVAYKNVVGARRSSWRVISSIEQKTMADGNEKKLEKVKAYREKIEKELETVCNDVLSLLDKFLIKNCNDFQYESKVFYLKMKGDYYRYLAEVASGEKKNSVVEASEAAYKEAFEISKEQMQPTHPIRLGLALNFSVFYYEIQNAPEQACLLAKQAFDDAIAELDTLNEDSYKDSTLIMQLLRDNLTLWTSDQQDEEAGEGN			binds
14-3-3θ (protein, UniProt P27348 1-245) MEKTELIQKAKLAEQAERYDDMATCMKAVTEQGAELSNEERNLLSVAYKNVVGGRRSAWRVISSIEQKTDTSDKKLQLIKDYREKVESELRSICTTVLELLDKYLIANATNPESKVFYLKMKGDYFRYLAEVACGDDRKQTIDNSQGAYQEAFDISKKEMQPTHPIRLGLALNFSVFYYEILNNPELACTLAKTAFDEAIAELDTLNEDSYKDSTLIMQLLRDNLTLWTSDSAGEECDAAEGAEN			binds
protein kinase D1 (PKD1) (enzyme, UniProt Q15139 1-912) MSAPPVLRPPSPLLPVAAAAAAAAAALVPGSGPGPAPFLAPVAAPVGGISFHLQIGLSREPVLLLQDSSGDYSLAHVREMACSIVDQKFPECGFYGMYDKILLFRHDPTSENILQLVKAASDIQEGDLIEVVLSASATFEDFQIRPHALFVHSYRAPAFCDHCGEMLWGLVRQGLKCEGCGLNYHKRCAFKIPNNCSGVRRRRLSNVSLTGVSTIRTSSAELSTSAPDEPLLQKSPSESFIGREKRSNSQSYIGRPIHLDKILMSKVKVPHTFVIHSYTRPTVCQYCKKLLKGLFRQGLQCKDCRFNCHKRCAPKVPNNCLGEVTINGDLLSPGAESDVVMEEGSDDNDSERNSGLMDDMEEAMVQDAEMAMAECQNDSGEMQDPDPDHEDANRTISPSTSNNIPLMRVVQSVKHTKRKSSTVMKEGWMVHYTSKDTLRKRHYWRLDSKCITLFQNDTGSRYYKEIPLSEILSLEPVKTSALIPNGANPHCFEITTANVVYYVGENVVNPSSPSPNNSVLTSGVGADVARMWEIAIQHALMPVIPKGSSVGTGTNLHRDISVSISVSNCQIQENVDISTVYQIFPDEVLGSGQFGIVYGGKHRKTGRDVAIKIIDKLRFPTKQESQLRNEVAILQNLHHPGVVNLECMFETPERVFVVMEKLHGDMLEMILSSEKGRLPEHITKFLITQILVALRHLHFKNIVHCDLKPENVLLASADPFPQVKLCDFGFARIIGEKSFRRSVVGTPAYLAPEVLRNKGYNRSLDMWSVGVIIYVSLSGTFPFNEDEDIHDQIQNAAFMYPPNPWKEISHEAIDLINNLLQVKMRKRYSVDKTLSHPWLQDYQTWLDLRELECKIGERYITHESDDLRWEKYAGEQGLQYPTHLINPSASHSDTPETEETEMKALGERVSIL	binds		
protein kinase D2 (PKD2) (enzyme, UniProt Q9BZL6 1-878) MATAPSYPAGLPGSPGPGSPPPPGGLELQSPPPLLPQIPAPGSGVSFHIQIGLTREFVLLPAASELAHVKQLACSIVDQKFPECGFYGLYDKILLFKHDPTSANLLQLVRSSGDIQEGDLVEVVLSASATFEDFQIRPHALTVHSYRAPAFCDHCGEMLFGLVRQGLKCDGCGLNYHKRCAFSIPNNCSGARKRRLSSTSLASGHSVRLGTSESLPCTAEELSRSTTELLPRRPPSSSSSSSASSYTGRPIELDKMLLSKVKVPHTFLIHSYTRPTVCQACKKLLKGLFRQGLQCKDCKFNCHKRCATRVPNDCLGEALINGDVPMEEATDFSEADKSALMDESEDSGVIPGSHSENALHASEEEEGEGGKAQSSLGYIPLMRVVQSVRHTTRKSSTTLREGWVVHYSNKDTLRKRHYWRLDCKCITLFQNNTTNRYYKEIPLSEILTVESAQNFSLVPPGTNPHCFEIVTANATYFVGEMPGGTPGGPSGQGAEAARGWETAIRQALMPVILQDAPSAPGHAPHRQASLSISVSNSQIQENVDIATVYQIFPDEVLGSGQFGVVYGGKHRKTGRDVAVKVIDKLRFPTKQESQLRNEVAILQSLRHPGIVNLECMFETPEKVFVVMEKLHGDMLEMILSSEKGRLPERLTKFLITQILVALRHLHFKNIVHCDLKPENVLLASADPFPQVKLCDFGFARIIGEKSFRRSVVGTPAYLAPEVLLNQGYNRSLDMWSVGVIMYVSLSGTFPFNEDEDINDQIQNAAFMYPASPWSHISAGAIDLINNLLQVKMRKRYSVDKSLSHPWLQEYQTWLDLRELEGKMGERYITHESDDARWEQFAAEHPLPGSGLPTDRDLGGACPPQDHDMQGLAERISVL	binds		
protein kinase D3 (PKD3) (enzyme, UniProt O94806 1-890) MSANNSPPSAQKSVLPTAIPAVLPAASPCSSPKTGLSARLSNGSFSAPSLTNSRGSVHTVSFLLQIGLTRESVTIEAQELSLSAVKDLVCSIVYQKFPECGFFGMYDKILLFRHDMNSENILQLITSADEIHEGDLVEVVLSALATVEDFQIRPHTLYVHSYKAPTFCDYCGEMLWGLVRQGLKCEGCGLNYHKRCAFKIPNNCSGVRKRRLSNVSLPGPGLSVPRPLQPEYVALPSEESHVHQEPSKRIPSWSGRPIWMEKMVMCRVKVPHTFAVHSYTRPTICQYCKRLLKGLFRQGMQCKDCKFNCHKRCASKVPRDCLGEVTFNGEPSSLGTDTDIPMDIDNNDINSDSSRGLDDTEEPSPPEDKMFFLDPSDLDVERDEEAVKTISPSTSNNIPLMRVVQSIKHTKRKSSTMVKEGWMVHYTSRDNLRKRHYWRLDSKCLTLFQNESGSKYYKEIPLSEILRISSPRDFTNISQGSNPHCFEIITDTMVYFVGENNGDSSHNPVLAATGVGLDVAQSWEKAIRQALMPVTPQASVCTSPGQGKDHKDLSTSISVSNCQIQENVDISTVYQIFADEVLGSGQFGIVYGGKHRKTGRDVAIKVIDKMRFPTKQESQLRNEVAILQNLHHPGIVNLECMFETPERVFVVMEKLHGDMLEMILSSEKSRLPERITKFMVTQILVALRNLHFKNIVHCDLKPENVLLASAEPFPQVKLCDFGFARIIGEKSFRRSVVGTPAYLAPEVLRSKGYNRSLDMWSVGVIIYVSLSGTFPFNEDEDINDQIQNAAFMYPPNPWREISGEAIDLINNLLQVKMRKRYSVDKSLSHPWLQDYQTWLDLREFETRIGERYITHESDDARWEIHAYTHNLVYPKHFIMAPNPDDMEEDP	binds		
14-3-3γ (protein, UniProt P61981 1-247) MVDREQLVQKARLAEQAERYDDMAAAMKNVTELNEPLSNEERNLLSVAYKNVVGARRSSWRVISSIEQKTSADGNEKKIEMVRAYREKIEKELEAVCQDVLSLLDNYLIKNCSETQYESKVFYLKMKGDYYRYLAEVATGEKRATVVESSEKAYSEAHEISKEHMQPTHPIRLGLALNYSVFYYEIQNAPEQACHLAKTAFDDAIAELDTLNEDSYKDSTLIMQLLRDNLTLWTSDQQDDDGGEGNN			binds
